Reference: PMC9275711
No constants are given. Whether binding was seen depends on the method and setting. Binding seen in cells or lysates may run through a third protein. Binding can be weak; no strength is given. Sequences can lack the tags named with a protein.

Target: T1, Flag-tagged A. thaliana CenH3 (A. thaliana) (UniProt Q8RVQ9)
T1 sequence: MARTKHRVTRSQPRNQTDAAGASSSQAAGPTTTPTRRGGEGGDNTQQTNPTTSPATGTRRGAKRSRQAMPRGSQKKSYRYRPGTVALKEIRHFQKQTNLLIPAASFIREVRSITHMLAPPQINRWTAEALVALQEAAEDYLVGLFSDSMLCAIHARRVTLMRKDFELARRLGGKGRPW
Experiment: co-IP; Flag-tagged bait from the detergent-solubilized membrane fraction of yeast held on a Flag-affinity column; eluted proteins read by western blot (anti-His or anti-Myc)

Substance: His6-tagged TBSV p33 replication protein (tomato bushy stunt virus (TBSV))
- binding: binds
